Here are results for 1 substance from publication doi:10.64898/2025.12.05.692577.

The chains behind the UniProt entries cited, without tags or fusion partners.
UniProt P23198: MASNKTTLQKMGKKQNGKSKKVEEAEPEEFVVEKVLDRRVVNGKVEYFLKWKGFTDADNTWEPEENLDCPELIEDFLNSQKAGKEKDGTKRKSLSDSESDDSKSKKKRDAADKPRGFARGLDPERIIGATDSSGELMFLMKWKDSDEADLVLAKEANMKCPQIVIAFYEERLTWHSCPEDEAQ
UniProt Q3U9G9: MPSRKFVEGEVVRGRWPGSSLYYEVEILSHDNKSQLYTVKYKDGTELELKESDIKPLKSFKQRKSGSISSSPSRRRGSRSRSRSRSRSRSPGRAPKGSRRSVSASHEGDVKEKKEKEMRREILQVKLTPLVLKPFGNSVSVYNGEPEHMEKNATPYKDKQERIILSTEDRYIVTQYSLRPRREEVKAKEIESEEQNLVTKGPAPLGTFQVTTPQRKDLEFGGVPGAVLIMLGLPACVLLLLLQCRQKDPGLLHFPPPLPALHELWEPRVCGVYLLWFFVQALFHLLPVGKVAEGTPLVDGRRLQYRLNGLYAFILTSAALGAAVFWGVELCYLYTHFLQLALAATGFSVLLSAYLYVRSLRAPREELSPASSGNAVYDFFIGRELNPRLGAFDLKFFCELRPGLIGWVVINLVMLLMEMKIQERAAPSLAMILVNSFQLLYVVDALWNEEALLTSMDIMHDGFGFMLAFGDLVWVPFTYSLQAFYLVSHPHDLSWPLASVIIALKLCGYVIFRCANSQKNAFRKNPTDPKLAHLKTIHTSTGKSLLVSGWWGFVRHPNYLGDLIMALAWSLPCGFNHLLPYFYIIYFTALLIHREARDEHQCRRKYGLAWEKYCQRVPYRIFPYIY
UniProt P20357: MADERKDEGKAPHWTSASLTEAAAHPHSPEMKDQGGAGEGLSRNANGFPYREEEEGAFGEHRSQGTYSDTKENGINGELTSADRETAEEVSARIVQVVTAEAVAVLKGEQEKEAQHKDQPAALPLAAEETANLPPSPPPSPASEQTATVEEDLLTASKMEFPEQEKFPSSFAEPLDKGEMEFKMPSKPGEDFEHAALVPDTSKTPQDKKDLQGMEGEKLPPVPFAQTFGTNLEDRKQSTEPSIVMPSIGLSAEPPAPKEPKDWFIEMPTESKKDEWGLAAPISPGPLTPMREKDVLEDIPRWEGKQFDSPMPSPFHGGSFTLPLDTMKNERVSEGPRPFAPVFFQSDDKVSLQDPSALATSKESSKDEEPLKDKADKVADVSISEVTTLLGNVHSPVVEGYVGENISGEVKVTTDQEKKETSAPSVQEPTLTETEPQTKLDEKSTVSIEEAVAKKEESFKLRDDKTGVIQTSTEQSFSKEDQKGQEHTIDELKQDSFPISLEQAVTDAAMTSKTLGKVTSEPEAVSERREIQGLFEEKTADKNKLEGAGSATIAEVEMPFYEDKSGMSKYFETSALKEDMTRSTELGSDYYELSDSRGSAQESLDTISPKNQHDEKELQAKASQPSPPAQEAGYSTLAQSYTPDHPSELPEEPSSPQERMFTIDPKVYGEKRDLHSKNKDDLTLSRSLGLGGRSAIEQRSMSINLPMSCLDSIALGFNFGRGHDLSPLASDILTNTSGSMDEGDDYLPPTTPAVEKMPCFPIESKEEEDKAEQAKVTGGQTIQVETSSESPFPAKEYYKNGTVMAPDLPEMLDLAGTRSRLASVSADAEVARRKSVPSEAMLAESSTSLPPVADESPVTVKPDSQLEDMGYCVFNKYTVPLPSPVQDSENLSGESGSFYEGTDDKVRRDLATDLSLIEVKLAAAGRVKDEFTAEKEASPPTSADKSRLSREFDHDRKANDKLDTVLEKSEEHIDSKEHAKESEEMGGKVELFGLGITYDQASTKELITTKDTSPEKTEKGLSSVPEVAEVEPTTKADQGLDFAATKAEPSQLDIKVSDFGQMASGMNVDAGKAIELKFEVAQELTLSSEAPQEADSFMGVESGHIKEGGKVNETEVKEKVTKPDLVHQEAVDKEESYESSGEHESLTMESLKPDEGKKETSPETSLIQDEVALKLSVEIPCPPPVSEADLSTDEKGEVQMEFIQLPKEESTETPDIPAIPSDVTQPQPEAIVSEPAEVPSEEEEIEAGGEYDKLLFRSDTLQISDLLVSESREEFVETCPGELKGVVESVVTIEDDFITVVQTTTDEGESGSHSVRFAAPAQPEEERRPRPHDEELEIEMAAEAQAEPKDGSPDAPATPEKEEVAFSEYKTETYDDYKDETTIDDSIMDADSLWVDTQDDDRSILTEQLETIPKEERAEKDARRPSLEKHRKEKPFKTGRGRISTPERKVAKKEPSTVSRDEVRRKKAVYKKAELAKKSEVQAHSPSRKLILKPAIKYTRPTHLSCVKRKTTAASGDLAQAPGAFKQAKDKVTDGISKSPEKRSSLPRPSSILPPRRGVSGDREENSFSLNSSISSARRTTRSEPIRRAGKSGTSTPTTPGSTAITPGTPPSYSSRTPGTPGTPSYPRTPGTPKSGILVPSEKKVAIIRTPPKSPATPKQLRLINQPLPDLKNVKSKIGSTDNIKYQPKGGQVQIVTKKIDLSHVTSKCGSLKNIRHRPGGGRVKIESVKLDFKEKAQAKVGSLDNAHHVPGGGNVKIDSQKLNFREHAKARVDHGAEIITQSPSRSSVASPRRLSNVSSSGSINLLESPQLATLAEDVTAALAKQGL

No constants are given. Whether binding was seen depends on the method and setting. Binding seen in cells or lysates may run through a third protein.

Experiment [1] deals with HP1ψ (HP1γ), endogenous in mouse hippocampal neurons (mouse (endogenous in primary hippocampal neurons)) (UniProt P23198). The experiment is described as follows: proximity ligation.
Experiment [2] addresses LBR, endogenous in mouse hippocampal neurons (mouse (endogenous in primary hippocampal neurons)) (UniProt Q3U9G9). In words: proximity ligation.

For “MAP2, endogenous in mouse hippocampal neurons (from UniProt P20357 1-1828)”, the binding result in experiment [1] and in experiment [2] was “no binding” throughout.
